In PubChem BioAssay AID445 (National Center for Advancing Translational Sciences (NCATS), 2006) one finds AC50 data, which are given here for 40 compounds.

SMILES strings stand for the structures. The list shows a part of the results. Further columns of the screen follow, without active or inactive calls. Most of these compounds were active or inconclusive in the main read-out, so they are no random draw. The note in brackets gives the kind of curve behind each potency; many fits are weak.

The assay can be described thus: IkB Signaling. The settings on record: ABC-DLBCL IkBa-CBG/CBR dual luciferase ratio (green luciferase fused to IkBa over red control in OCI-Ly3 lymphoma cells), 4 h. Summed up: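 Curves were fitted separately to fusion (green), unfused (red) and ratio luminescence, then classed by r2, magnitude and activity. Cells: OCI-Ly3, 4 h compound plus doxycycline at 37C; 10 uM MG-132 defined full response.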
The mark [1] stands for this setting: measured here: control luc red channel unless noted.

Consider `CCOc1ccc(NC(=O)N2CCC(N3CCCCC3)CC2)cc1`, for which, under setting [1], the AC50 was 0.316 µM [falling, full curve, poor fit].

Regarding `Nc1ccccc1NC(=O)c1ccccc1`, the AC50 is, setting by setting: (measured here: IkB-luc green channel) 25.1 µM [rising, partial curve]; (measured here: control luc red channel) 20 µM [rising, partial curve]. As for `Cc1cccc(CSc2ncccc2C(=O)O)c1`, the AC50 under setting [1] is 2.51 µM [rising, full curve]. `Cc1ccc(NC(=O)C2CCCN(S(=O)(=O)c3c(C)noc3/C=C/N(C)C)C2)cc1F` (stereo unspecified): under setting [1], the AC50 was 15.8 µM [falling, partial curve]. As to `Cc1cc(C)c(S(=O)(=O)Nc2ccccc2C(F)(F)F)c(C)c1`, the AC50 under setting [1] was 39.8 µM [falling, partial curve].

For `COc1ccc(-n2nc3c(N4CCCC(C(=O)NCCc5ccccc5C)C4)nnc(C)c3c2C)cc1` (stereo unspecified), the AC50 under setting [1] was 10 µM [falling, partial curve]. With `COc1ccc(S(=O)(=O)N(CC(=O)Nc2ccc3c(c2)OCO3)c2ccccc2OC)cc1`, the AC50 under setting [1] is 3.98 µM [falling, full curve]. For the compound `O=S(=O)(c1ccc(-c2cnc(C3CC3)o2)cc1)N1CCN(c2ccccc2)CC1`, the AC50 under setting [1] was 3.16 µM [falling, partial curve, poor fit]. As for `CC1=C(C(=O)OC2CCCC2)C(c2ccccc2C(F)(F)F)CC(=O)N1` (stereo unspecified), the AC50 under setting [1] is 39.8 µM [falling, partial curve]. Take `COc1cccc(NC(=O)Cn2c(=O)n(-c3ccccc3)c(=O)c3c2c2cc(OC)ccc2n3C)c1`: the AC50 under setting [1] was 1.26 µM [falling, full curve]. Consider `COc1ccc(C2c3c(n(C)c4ccccc34)C(=O)N2CC(=O)Nc2ccc(F)cc2)cc1` (stereo unspecified), for which the AC50 under setting [1] was 10 µM [falling, partial curve]. As for `CCOc1ccc(-c2nc(SCC(=O)Nc3cc(F)ccc3F)n3[nH]c(=O)cc3n2)cc1`, the AC50 under setting [1] is 2.51 µM [rising, partial curve]. On the same count and under the same terms, in the case of `COc1ccc(-c2ccc(=O)n(CC(=O)Nc3ccc(OC)c(OC)c3)n2)cc1` it was 7.94 µM [falling, full curve]; in that of `CCC(C)NC(=O)c1cnc2n(c1=O)CCS2` (stereo unspecified), 12.6 µM [falling, partial curve].

With `O=C1N(Cc2ccccc2)c2ccccc2C1(O)c1c[nH]c2ccccc12` (stereo unspecified), the AC50 under setting [1] is 15.8 µM [falling, partial curve]. Take `CCc1cccc(NC(=O)c2c(C)oc3nc(C)nc(N4CCCC4)c23)c1`: under setting [1], the AC50 is 39.8 µM [falling, single point].

`COC(=O)C1CCN(c2csc3ccc(Cl)cc3c2=O)CC1`: the AC50 under setting [1] was 7.94 µM [falling, partial curve].

On to `O=C(NCCCO)c1nn(-c2ccc(Cl)cc2)nc1CO`, for which the AC50 under setting [1] is 0.00794 µM [rising, full curve, poor fit].

With `CCc1ccc(OCc2cc(=O)n3cc(C)sc3n2)cc1`, the AC50 under setting [1] was 0.0794 µM [rising, full curve]. Turning to `CCOc1ccc2oc(=O)cc(CN3CCN(c4ccccc4OC)CC3)c2c1`, under setting [1], the AC50 was 31.6 µM [falling, partial curve]. The same measure, in the same setting: next, `COc1cccc(NC(=O)Cn2c(=O)n(CCc3ccc(OC)c(OC)c3)c(=O)c3ccccc32)c1`: 0.2 µM [falling, full curve, poor fit]. On the same count and under the same terms, in the case of `Cc1ccc(-c2cc(C(F)F)nc(NCc3cccnc3)n2)cc1` it was 20 µM [falling, partial curve]; in that of `COc1cc(COc2cc(N)c(Cl)cc2C(=O)CCC2CCN(CCNS(C)(=O)=O)CC2)cc(OC)c1`, 39.8 µM [falling, partial curve]. Regarding `Cc1ccc(-c2nnn(CC(=O)N(CC(=O)NCc3ccccc3)c3cccc(C)c3C)n2)o1`, the AC50 under setting [1] is 31.6 µM [falling, partial curve]. Turning to `COc1ccc(C(=O)N(Cc2cc(OC)c(OC)c(OC)c2)C2CCS(=O)(=O)C2)cc1Cl` (stereo unspecified), under setting [1], the AC50 is 3.98 µM [rising, partial curve]. On to `CCCCOC(=O)c1ccc(Nc2ncnc3c2cnn3-c2cccc(C)c2)cc1`, for which the AC50 under setting [1] is 1 µM [falling, partial curve]. With `COc1ccc(-c2nc(S(=O)(=O)c3ccc(C)cc3)c(N3CCCCC3)o2)cc1`, under setting [1], the AC50 is 25.1 µM [falling, partial curve, poor fit].

Take `Cc1ccc(CNC(=O)CN2C(=O)CC(c3ccc(C)c(C)c3)=Nc3ccccc32)cc1`: the AC50 under setting [1] is 31.6 µM [falling, partial curve]. On the same count and under the same terms, next, `CCCn1c(CN(C)Cc2ccccc2)nc2c1c(=O)n(C)c(=O)n2C`: 15.8 µM [falling, partial curve]. Same read-out and setting: next, `Cc1cccc(CN2CCC(CNc3ncnc4onc(-c5ccc(Cl)cc5)c34)CC2)c1`: 20 µM [falling, single point]; `Clc1cccc(-n2cc(-c3ccccc3)c3c(NC4CCCC4)ncnc32)c1`: 12.6 µM [falling, partial curve]; `COc1ccccc1NC(=O)CSc1nc2c(oc3ccccc32)c(=O)n1Cc1ccco1`: 10 µM [falling, partial curve]. For the compound `O=C(NCc1cccc(Cl)c1)NCc1noc2ccccc12`, under setting [1], the AC50 is 0.794 µM [rising, full curve].

Turning to `COc1cccc(N2CCN(c3ncnc4c3c(-c3ccccc3)cn4-c3ccc(F)cc3)CC2)c1`, the AC50 under setting [1] is 25.1 µM [falling, partial curve]. In the case of `CCCCN(CC)C(=O)CCCn1c(=O)c2cccn2c2ccccc21`, the AC50 under setting [1] was 25.1 µM [falling, single point]. Consider `CCOC(=O)c1cnc(N2CCN(c3ccc(OC)cc3)CC2)c2ccccc12`, for which the AC50 under setting [1] was 31.6 µM [falling, single point].

For the compound `O=C(NCC(c1cccnc1)N1CCN(c2ccc(F)cc2)CC1)c1cccc(Cl)c1` (stereo unspecified), the AC50 under setting [1] is 12.6 µM [falling, partial curve]. The same measure, in the same setting: in the case of `CCN1CCN(c2ncnc3c2cnn3-c2cc(Cl)ccc2C)CC1` it was 25.1 µM [falling, partial curve]; in that of `CCOC(=O)c1c(S(=O)(=O)NCC(=O)N(C)Cc2ccccc2)c(C)n(C)c1C`, 25.1 µM [rising, partial curve, poor fit]; in that of `CC(C)c1ccc(-c2noc(C3CCCN(C(=O)c4ccc(F)cc4F)C3)n2)cc1` (stereo unspecified), 25.1 µM [falling, single point].
